Results reported in PMC6049948.
No constants are given. Whether binding was seen depends on the method and setting. In cells and extracts the contact can be indirect. Binding calls can cover weak binding; strength is not graded here. Where a sequence is shown, tags or fusion partners need not be part of it.

Molecular target: T1, GFP-Bucky ball (zebrafish) (UniProt H0WFA5)
T1 sequence: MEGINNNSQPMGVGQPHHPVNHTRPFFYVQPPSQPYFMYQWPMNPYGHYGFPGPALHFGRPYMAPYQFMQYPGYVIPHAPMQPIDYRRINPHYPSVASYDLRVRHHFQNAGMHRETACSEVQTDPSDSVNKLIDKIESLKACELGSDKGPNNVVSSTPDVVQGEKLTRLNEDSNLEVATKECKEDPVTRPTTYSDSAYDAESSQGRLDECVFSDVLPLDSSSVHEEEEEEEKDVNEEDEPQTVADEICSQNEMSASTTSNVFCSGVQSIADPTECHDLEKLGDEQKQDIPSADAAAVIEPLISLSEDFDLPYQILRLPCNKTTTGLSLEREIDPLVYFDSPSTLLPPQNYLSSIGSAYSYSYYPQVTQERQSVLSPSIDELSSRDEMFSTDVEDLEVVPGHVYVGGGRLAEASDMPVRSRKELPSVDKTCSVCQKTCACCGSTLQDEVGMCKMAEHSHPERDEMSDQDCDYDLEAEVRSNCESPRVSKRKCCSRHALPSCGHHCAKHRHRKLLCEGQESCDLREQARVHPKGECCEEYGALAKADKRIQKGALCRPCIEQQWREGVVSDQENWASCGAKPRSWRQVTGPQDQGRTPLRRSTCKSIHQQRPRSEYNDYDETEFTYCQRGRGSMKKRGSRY
Assay: co-IP; HEK293 cells co-transfected with pCS3-MT-Rbpms constructs and pCS3-GFP-Buc (or pCS3-GFP control); IP from the supernatant of cell lysates (including mRNA) with anti-GFP 3E6 antibody and Protein G magnetic beads; blotted with anti-Myc and anti-GFP

Q: How did the binding turn out when “Myc-tagged Rbpms2bΔC-terminus (zebrafish) (domain or fragment)” was run?
A: The binding was “binds”.

Q: Which binding does the source give for Myc-tagged Rbpms2bΔRNP1 (zebrafish) here?
A: The binding was “binds”.

Q: Myc-tagged zebrafish Rbpms2b was tested. Which binding did it give?
A: Its binding is “binds”.

Q: Myc-tagged zebrafish Rbpms (Rbpms1) was tested. Which binding did it give?
A: The binding was “binds”.
